From the supplement of paper PMC10849652
Some of the results follow. Residues, ends and D or L forms follow the SMILES beside them. *: point of attachment. Cbz = O=C(OCc1ccccc1)*

By UniProt entry, the sequences of proteins in these tests, tags left out. Where a name states a change or a piece, a line headed by the entry shows the natural chain unless it says otherwise.
UniProt Q8N350: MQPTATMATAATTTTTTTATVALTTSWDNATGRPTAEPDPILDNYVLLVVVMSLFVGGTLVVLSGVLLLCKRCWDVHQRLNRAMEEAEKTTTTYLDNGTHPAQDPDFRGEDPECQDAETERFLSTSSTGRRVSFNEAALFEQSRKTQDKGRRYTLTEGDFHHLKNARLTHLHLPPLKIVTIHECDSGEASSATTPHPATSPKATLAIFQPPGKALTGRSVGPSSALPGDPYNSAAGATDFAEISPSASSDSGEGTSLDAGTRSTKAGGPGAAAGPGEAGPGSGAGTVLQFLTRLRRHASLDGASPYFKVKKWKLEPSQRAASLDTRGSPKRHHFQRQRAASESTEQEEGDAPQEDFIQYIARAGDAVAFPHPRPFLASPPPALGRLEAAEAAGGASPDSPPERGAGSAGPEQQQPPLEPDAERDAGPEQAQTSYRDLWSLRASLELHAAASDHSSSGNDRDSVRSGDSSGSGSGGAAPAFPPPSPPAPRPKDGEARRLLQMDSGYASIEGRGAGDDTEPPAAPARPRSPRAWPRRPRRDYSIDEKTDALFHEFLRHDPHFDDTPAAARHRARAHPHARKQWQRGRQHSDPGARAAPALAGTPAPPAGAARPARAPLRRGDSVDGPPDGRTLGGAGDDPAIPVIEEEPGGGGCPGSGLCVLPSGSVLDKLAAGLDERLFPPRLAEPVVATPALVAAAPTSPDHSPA
UniProt P45973, whole entry, looked up: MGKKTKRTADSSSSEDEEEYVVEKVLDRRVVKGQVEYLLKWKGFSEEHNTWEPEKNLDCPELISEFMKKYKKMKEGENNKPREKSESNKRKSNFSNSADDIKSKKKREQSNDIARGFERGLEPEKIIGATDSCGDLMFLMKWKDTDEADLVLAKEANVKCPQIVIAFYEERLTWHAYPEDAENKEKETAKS
UniProt Q8N4S0: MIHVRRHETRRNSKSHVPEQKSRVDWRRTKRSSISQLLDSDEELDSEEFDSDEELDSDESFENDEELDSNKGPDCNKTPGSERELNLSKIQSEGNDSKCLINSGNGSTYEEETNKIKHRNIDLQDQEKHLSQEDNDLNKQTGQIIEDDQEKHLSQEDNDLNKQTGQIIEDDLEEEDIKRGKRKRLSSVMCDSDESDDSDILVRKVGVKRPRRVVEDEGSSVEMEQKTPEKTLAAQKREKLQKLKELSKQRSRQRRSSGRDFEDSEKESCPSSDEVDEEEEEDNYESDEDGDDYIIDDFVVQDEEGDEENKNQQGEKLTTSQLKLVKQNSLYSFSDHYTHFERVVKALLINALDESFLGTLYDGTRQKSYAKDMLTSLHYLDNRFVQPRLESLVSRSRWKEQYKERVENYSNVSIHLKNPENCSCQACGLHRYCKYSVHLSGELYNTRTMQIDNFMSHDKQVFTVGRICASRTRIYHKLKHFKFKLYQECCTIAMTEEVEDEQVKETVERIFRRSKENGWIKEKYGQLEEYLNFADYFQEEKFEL
UniProt P14635, whole entry, looked up: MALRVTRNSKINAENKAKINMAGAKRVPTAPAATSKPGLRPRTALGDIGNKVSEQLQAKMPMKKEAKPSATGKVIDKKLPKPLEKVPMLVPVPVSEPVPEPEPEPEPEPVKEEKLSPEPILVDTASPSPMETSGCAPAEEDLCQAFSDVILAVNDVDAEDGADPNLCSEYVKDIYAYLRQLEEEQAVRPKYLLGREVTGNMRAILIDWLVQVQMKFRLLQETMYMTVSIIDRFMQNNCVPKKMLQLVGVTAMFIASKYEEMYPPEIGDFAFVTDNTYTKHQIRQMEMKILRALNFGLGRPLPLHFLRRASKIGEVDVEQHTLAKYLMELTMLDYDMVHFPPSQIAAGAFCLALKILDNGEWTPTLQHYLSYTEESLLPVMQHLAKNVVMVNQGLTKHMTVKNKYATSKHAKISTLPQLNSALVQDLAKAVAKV
UniProt Q9BSQ5: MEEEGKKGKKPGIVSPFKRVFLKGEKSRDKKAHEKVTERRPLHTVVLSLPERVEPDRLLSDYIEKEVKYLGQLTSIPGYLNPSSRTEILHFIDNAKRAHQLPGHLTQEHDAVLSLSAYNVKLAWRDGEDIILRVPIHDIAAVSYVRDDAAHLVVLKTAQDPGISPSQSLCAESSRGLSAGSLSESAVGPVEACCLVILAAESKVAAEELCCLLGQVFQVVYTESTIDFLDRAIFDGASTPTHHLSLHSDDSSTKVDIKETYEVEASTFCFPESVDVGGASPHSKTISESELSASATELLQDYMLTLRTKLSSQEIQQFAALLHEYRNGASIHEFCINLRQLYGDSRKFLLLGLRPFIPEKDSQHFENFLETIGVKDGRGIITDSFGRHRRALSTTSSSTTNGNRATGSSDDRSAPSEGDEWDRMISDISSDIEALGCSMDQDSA
UniProt P24863: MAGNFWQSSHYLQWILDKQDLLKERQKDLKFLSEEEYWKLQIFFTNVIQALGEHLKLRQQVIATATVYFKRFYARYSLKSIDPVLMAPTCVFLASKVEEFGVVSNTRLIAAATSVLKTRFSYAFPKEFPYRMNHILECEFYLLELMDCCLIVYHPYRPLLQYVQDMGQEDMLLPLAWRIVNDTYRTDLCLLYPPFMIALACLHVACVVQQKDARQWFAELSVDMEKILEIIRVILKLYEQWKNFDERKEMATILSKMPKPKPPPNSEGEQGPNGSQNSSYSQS
UniProt P51946: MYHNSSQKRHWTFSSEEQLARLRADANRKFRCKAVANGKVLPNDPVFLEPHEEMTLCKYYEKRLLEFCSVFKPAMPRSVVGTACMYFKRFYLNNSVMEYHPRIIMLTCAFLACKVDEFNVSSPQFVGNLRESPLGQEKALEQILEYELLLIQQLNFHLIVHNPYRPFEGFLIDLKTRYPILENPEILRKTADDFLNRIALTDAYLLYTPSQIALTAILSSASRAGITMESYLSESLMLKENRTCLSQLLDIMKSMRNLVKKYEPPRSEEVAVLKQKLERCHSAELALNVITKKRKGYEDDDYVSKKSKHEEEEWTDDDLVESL
UniProt Q7L3B6: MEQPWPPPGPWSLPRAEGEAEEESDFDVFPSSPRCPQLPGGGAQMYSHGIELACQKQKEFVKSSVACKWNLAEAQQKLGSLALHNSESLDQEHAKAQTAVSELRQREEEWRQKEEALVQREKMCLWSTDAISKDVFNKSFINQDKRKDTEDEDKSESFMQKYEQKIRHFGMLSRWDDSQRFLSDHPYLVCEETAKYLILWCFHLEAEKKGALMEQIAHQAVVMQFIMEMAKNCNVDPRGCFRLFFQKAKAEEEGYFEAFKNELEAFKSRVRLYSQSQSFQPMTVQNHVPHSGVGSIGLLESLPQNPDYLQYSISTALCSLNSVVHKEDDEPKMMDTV
UniProt P16152: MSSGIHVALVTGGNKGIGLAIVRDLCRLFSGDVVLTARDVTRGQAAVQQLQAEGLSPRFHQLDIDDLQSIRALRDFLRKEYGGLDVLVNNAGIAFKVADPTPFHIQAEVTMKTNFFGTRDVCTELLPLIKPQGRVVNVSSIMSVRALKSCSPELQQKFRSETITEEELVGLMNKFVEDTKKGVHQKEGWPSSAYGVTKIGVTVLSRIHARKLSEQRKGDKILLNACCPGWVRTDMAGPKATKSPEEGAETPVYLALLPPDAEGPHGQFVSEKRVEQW

Assays:
Experiment in all cases: log2 fold change, soluble protein after heating vs DMSO (PISA); higher = thermal stabilisation; K562 cells, 10 uM, 30 min; active = over 0.2 and 3.5 SD of the protein, either way, in both replicates (recomputed)
IRAK-1-4 Inhibitor I = compound: C1COCCN1CCN2C3=CC=CC=C3N=C2NC(=O)C4=CC(=CC=C4)[N+](=O)[O-] [IRAK-1-4 Inhibitor I]
Summary of the method: (§1)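 For each measurement, 10 μM compound was applied for 30 min to K562 cells at 2×10^6 cells/mL. Aliquots were heated for 3 min across 48°C-58°C, pooled, and extracted in PBS with 0.5% NP-40 at 4°C; the supernatant after 21,000xg for 90 min was soluble protein. This was quantified by TMTpro 16plex LC-MS/MS with channel sums equalised, and thermal stability was reported relative to control samples from duplicates, on a log2 fold-change scale.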

ibrutinib = compound: C=CC(=O)N1CCC[C@@H](n2nc(-c3ccc(Oc4ccccc4)cc3)c3c(N)ncnc32)C1 [ibrutinib]
Summary of the method: as §1

[1] = compound: CC(=O)c1cnc2ccc(-c3cc(Cl)c(O)c(Cl)c3)nc2c1N[C@H]1CC[C@H](CN(C)C)CC1
Summary of the method: as §1

ralimetinib = compound: CC(C)(C)Cn1c(N)nc2ccc(-c3[nH]c(C(C)(C)C)nc3-c3ccc(F)cc3)nc21 [ralimetinib]
Summary of the method: as §1

[2] = compound: CC(C)(O)CC(=O)NCCn1ccc2ncnc(Nc3ccc(Oc4cccc(C(F)(F)F)c4)c(Cl)c3)c21
Summary of the method: as §1

[3] = compound: CC(C)C[C@@H](C=O)NC(=O)[C@H](CC(C)C)NC(=O)[C@H](CC(C)C)NC(=O)OCc1ccccc1
Summary of the method: as §1

pinometostat = compound: CC(C)N(C[C@H]1O[C@@H](n2cnc3c(N)ncnc32)[C@H](O)[C@@H]1O)[C@H]1C[C@@H](CCc2nc3cc(C(C)(C)C)ccc3[nH]2)C1 [pinometostat]
Summary of the method: as §1

[4] = compound: CC1=C(C(CC(=O)N1)C2=CC=C(C=C2)C(F)(F)F)C(=O)NC3=C(C=C4C(=C3)C=NN4)F
Summary of the method: as §1

[5] = compound: CC1=C(C2=C(C=C1)C(=O)C3=CC=CC=C3N2CCCN)C
Summary of the method: as §1

[6] = compound: CC1=C(C=C(C=C1)NC(=O)C2=CC(=CC=C2)C(C)(C)C#N)NC3=CC4=C(C=C3)N=CN(C4=O)C
Summary of the method: as §1

[7] = compound: CC1=C(C=C(C=C1)NC(=O)C2=CC(=CC=C2)N(C)C)NC(=O)C3=CC=C(C=C3)O
Summary of the method: as §1

[8] = compound: CC1=NC(=CC=C1)C2=C(N=C(N2)C(C)(C)C)C3=CC4=NC=CN=C4C=C3
Summary of the method: as §1

Nexturastat A = compound: CCCCN(Cc1ccc(C(=O)NO)cc1)C(=O)Nc1ccccc1 [Nexturastat A]
Summary of the method: as §1

vemurafenib = compound: CCCS(=O)(=O)Nc1ccc(F)c(C(=O)c2c[nH]c3ncc(-c4ccc(Cl)cc4)cc23)c1F [vemurafenib]
Summary of the method: as §1

barasertib = compound: CCN(CCCOc1ccc2c(Nc3cc(CC(=O)Nc4cccc(F)c4)[nH]n3)ncnc2c1)CCOP(=O)(O)O [barasertib]
Summary of the method: as §1

[9] = compound: CC(C)C1=C2N=C(C=C(N2N=C1)NCC3=CC=CC=C3)NCCCCCCN
Summary of the method: as §1

[10] = compound: CC1=CC=C(C=C1)SC2=C3C=C(SC3=CN=C2)C(=O)N
Summary of the method: as §1

[11] = compound: CCCS(=O)(=O)Nc1ccc(F)c(C(=O)c2c[nH]c3ncc(Cl)cc23)c1F
Summary of the method: as §1

[12] = compound: CCCc1cc(C)[nH]c(=O)c1CNC(=O)c1cc(-c2ccnc(N3CCN(C)CC3)c2)cc2c1cnn2C(C)C
Summary of the method: as §1

givinostat = compound: CCN(CC)Cc1ccc2cc(COC(=O)Nc3ccc(C(=O)NO)cc3)ccc2c1 [givinostat]
Summary of the method: as §1

| Target | log2 fold change (IRAK-1-4 Inhibitor I) | log2 fold change (ibrutinib) | log2 fold change [1] | log2 fold change (ralimetinib) | log2 fold change [2] | log2 fold change [3] | log2 fold change (pinometostat) | log2 fold change [4] | log2 fold change [5] | log2 fold change [6] | log2 fold change [7] | log2 fold change [8] | log2 fold change (Nexturastat A) | log2 fold change (vemurafenib) | log2 fold change (barasertib) | log2 fold change [9] | log2 fold change [10] | log2 fold change [11] | log2 fold change [12] | log2 fold change (givinostat) |
| --- | --- | --- | --- | --- | --- | --- | --- | --- | --- | --- | --- | --- | --- | --- | --- | --- | --- | --- | --- | --- |
| CBARP (UniProt Q8N350) | inactive: 0.06 | inactive: 0.154 | inactive: 0.071 | inactive: 0.034 | inactive: 0.049 | inactive: -0.037 | inactive: 0.16 | inactive: -0.036 | inactive: -0.091 | inactive: 0 | inactive: 0.057 | inactive: -0.188 | inactive: 0.006 | inactive: -0.134 | inactive: 0.295 |  |  |  |  |  |
| CBX5 (UniProt P45973) | inactive: -0.076 | inactive: 0.002 | inactive: -0.102 | inactive: -0.002 | inactive: 0.056 | inactive: -0.001 | inactive: -0.058 |  | active: -0.545 | inactive: 0.051 | inactive: 0.029 | inactive: 0.113 | inactive: 0.027 | inactive: 0.045 | inactive: -0.05 | inactive: -0.067 | inactive: 0.073 | inactive: 0.085 | inactive: -0.051 | inactive: 0.043 |
| CCDC82 (UniProt Q8N4S0) | inactive: -0.041 | inactive: 0.022 | inactive: -0.07 | inactive: -0.023 | inactive: 0.012 | inactive: 0.028 | inactive: -0.019 |  | active: -0.65 |  | inactive: -0.027 | inactive: -0.103 | inactive: 0.043 | inactive: 0.015 | inactive: 0.073 | inactive: 0 | inactive: -0.007 | inactive: 0.055 | inactive: -0.035 | inactive: -0.074 |
| CCNB1 (UniProt P14635) | inactive: 0.035 | inactive: -0.024 | active: -0.221 | inactive: -0.016 | inactive: -0.005 | inactive: 0.006 | inactive: -0.018 |  | inactive: 0.007 | inactive: 0.021 | inactive: -0.043 | inactive: 0 | inactive: 0.017 | inactive: 0.03 | inactive: -0.007 | inactive: -0.014 | inactive: 0.011 | inactive: 0.008 | inactive: -0.033 | inactive: 0.007 |
| CCM2 isoform 2 (UniProt Q9BSQ5) | inactive: 0.027 | inactive: -0.004 |  | inactive: 0.04 | inactive: 0.027 | inactive: 0.009 | inactive: 0.056 |  | inactive: -0.013 | inactive: -0.072 | inactive: -0.068 | inactive: -0.002 | inactive: 0.102 | inactive: 0.008 | inactive: -0.061 | inactive: -0.085 | inactive: -0.124 | inactive: 0.009 | inactive: 0.052 | inactive: -0.003 |
| CCNC (UniProt P24863) | inactive: 0.071 | inactive: -0.082 | active: 0.595 | inactive: -0.027 | inactive: 0.053 | inactive: 0.071 | inactive: -0.058 |  |  | inactive: 0.207 | inactive: -0.072 | inactive: 0.031 | inactive: 0.008 | inactive: 0.105 | inactive: -0.024 | inactive: 0.041 |  |  | inactive: -0.086 | inactive: 0.011 |
| CCNH (UniProt P51946) | inactive: -0.01 | inactive: -0.04 | active: -0.24 | inactive: -0.04 | inactive: -0.009 | inactive: -0.053 | inactive: 0.022 |  | inactive: -0.01 | inactive: -0.023 | inactive: 0.007 | inactive: -0.056 | inactive: -0.002 | inactive: 0.003 | inactive: 0.031 | inactive: 0.084 | inactive: -0.015 | inactive: 0.018 | inactive: -0.029 | inactive: -0.007 |
| CDC37L1 (UniProt Q7L3B6) | inactive: 0.004 | inactive: -0.018 | inactive: -0.012 | inactive: -0.059 | inactive: -0.118 | inactive: 0 | inactive: -0.015 |  | inactive: -0.281 | inactive: 0.035 | inactive: 0.001 | inactive: -0.021 | inactive: -0.028 | inactive: -0.008 | inactive: 0.063 | inactive: -0.004 | inactive: -0.054 | inactive: 0.019 | inactive: 0.063 | inactive: 0.044 |
| CBR1 (UniProt P16152) | inactive: 0.023 | inactive: 0.009 | inactive: 0.031 | inactive: 0.097 | inactive: -0.007 | inactive: -0.088 | inactive: -0.035 |  | inactive: 0.028 | inactive: 0.006 | inactive: -0.023 | inactive: 0.038 | inactive: -0.032 | inactive: -0.001 | inactive: 0.025 | inactive: 0.061 | inactive: 0.005 | inactive: 0.074 | inactive: 0.051 | inactive: 0.005 |
